Results: PubChem BioAssay (EPA / NIEHS)
Only results without a clear call are listed here; the source files them as inconclusive. How the source made its calls: active means hit-call score of the fitted dose curve at least 0.9, where 1 is the maximum; inconclusive means response in the unintended direction; inactive means score below 0.9.

The chains behind the UniProt entries cited, without tags or fusion partners.
UniProt P04150, whole entry: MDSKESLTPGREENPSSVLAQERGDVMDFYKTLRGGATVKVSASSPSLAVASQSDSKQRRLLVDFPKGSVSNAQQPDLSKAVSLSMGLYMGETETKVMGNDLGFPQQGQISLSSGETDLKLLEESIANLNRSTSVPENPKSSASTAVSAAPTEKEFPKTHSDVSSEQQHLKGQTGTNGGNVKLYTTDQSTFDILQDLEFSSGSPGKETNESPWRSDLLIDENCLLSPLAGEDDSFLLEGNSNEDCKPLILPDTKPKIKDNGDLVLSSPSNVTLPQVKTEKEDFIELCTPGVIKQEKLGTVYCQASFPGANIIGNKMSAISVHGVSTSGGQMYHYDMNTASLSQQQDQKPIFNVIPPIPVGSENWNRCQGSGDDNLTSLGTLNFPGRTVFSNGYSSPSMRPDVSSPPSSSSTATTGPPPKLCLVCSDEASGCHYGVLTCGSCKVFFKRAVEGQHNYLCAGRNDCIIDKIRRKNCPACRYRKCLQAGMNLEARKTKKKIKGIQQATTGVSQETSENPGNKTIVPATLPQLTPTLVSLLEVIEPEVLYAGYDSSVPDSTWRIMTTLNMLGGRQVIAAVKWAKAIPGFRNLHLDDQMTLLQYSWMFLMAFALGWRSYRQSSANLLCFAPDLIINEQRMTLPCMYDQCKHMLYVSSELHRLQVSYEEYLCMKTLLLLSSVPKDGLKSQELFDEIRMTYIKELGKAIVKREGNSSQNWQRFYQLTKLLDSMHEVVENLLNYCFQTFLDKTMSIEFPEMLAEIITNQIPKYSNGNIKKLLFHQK
UniProt Q13133, whole entry: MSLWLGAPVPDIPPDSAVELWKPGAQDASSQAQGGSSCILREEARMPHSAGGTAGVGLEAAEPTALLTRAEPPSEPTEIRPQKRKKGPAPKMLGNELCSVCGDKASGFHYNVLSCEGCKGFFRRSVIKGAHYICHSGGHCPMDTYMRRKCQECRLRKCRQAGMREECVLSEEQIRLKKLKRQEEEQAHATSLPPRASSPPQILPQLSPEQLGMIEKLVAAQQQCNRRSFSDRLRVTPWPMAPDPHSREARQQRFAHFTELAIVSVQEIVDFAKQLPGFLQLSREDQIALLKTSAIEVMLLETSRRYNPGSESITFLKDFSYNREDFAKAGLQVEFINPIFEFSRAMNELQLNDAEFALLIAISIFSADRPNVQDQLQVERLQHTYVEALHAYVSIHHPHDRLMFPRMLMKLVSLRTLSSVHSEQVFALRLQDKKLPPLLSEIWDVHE
UniProt P41235, whole entry: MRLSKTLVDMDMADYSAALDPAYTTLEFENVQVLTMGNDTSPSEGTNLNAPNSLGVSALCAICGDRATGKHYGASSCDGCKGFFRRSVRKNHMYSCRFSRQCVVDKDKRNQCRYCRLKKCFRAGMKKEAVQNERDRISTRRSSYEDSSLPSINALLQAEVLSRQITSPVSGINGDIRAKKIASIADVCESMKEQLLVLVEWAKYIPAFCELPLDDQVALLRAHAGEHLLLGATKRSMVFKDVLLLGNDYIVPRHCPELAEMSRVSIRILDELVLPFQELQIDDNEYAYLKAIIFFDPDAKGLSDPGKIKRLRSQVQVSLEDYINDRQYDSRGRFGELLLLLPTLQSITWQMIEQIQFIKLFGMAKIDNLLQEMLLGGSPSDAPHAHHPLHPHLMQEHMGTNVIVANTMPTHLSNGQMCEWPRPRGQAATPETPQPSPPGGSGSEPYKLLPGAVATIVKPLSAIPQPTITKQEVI
UniProt P10276, whole entry: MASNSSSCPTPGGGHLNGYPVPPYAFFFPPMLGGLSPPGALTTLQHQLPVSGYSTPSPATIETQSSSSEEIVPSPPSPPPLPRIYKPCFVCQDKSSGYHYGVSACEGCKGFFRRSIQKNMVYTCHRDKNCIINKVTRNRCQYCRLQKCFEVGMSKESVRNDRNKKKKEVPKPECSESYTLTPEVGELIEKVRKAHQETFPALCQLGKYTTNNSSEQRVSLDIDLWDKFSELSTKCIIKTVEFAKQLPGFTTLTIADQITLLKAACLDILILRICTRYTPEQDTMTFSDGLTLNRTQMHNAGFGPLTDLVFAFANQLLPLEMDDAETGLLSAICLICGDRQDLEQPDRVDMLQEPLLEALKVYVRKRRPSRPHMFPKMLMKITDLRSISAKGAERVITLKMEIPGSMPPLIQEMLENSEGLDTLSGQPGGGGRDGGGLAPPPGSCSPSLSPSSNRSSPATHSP
UniProt P37231, whole entry: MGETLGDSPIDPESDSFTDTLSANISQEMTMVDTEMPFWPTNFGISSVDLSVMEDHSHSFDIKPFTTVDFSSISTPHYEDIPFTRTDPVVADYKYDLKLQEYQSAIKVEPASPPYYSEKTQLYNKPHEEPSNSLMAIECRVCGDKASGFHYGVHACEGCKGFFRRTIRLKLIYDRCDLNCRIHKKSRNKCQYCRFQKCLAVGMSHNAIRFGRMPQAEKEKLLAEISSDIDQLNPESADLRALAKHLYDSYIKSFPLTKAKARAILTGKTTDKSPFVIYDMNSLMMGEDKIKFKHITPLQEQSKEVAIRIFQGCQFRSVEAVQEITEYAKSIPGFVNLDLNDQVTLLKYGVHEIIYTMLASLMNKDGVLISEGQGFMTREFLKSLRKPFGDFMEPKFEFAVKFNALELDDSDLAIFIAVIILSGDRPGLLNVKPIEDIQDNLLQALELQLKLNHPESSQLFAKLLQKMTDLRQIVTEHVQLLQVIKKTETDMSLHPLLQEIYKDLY
UniProt O75469, whole entry: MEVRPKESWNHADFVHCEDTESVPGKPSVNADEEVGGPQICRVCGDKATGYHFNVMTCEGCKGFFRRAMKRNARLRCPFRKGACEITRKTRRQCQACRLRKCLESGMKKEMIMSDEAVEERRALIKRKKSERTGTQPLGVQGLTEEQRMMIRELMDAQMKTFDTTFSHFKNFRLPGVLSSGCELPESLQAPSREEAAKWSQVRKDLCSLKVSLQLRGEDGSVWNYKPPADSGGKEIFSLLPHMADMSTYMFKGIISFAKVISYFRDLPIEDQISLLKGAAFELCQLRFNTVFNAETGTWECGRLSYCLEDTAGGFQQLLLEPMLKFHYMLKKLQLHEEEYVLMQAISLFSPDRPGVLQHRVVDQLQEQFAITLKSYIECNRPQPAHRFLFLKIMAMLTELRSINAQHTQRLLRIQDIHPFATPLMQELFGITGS
UniProt P13631, whole entry: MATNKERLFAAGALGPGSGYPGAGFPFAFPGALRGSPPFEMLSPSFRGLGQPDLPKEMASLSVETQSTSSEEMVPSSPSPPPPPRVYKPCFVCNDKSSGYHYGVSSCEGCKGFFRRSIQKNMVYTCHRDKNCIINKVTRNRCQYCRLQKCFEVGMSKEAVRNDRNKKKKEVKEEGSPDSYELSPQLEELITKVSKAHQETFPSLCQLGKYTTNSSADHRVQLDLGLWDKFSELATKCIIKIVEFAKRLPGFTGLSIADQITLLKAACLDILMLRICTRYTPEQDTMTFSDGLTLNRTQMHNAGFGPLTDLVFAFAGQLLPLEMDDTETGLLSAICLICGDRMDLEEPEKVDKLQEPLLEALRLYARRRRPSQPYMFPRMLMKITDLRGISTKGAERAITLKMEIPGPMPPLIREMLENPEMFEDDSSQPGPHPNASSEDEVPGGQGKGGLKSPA
UniProt Q92753, whole entry: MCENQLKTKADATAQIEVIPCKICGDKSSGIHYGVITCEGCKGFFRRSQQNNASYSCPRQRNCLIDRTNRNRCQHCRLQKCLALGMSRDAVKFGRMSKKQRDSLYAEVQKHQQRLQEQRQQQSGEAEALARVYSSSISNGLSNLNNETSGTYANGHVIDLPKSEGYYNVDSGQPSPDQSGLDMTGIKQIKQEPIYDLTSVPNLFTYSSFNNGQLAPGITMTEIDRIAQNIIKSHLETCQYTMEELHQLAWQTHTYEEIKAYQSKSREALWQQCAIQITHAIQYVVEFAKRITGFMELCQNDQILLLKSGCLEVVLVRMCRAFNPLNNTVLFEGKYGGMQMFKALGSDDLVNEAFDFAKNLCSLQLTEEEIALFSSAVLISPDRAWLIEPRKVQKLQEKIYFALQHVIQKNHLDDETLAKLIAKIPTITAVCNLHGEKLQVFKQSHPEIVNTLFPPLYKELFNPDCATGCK
UniProt P19793, whole entry: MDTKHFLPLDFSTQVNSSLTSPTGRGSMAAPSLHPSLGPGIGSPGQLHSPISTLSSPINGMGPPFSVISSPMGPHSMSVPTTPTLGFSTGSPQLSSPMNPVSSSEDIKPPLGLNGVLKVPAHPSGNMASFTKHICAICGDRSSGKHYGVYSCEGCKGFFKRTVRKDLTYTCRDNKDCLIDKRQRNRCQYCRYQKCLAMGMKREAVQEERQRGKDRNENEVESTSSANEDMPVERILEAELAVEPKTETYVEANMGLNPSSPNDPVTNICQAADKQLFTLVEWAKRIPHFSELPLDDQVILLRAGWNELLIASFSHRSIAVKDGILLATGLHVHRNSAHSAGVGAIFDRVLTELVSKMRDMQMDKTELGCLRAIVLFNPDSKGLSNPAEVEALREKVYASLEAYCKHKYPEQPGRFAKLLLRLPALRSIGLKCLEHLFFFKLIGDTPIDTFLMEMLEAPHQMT
UniProt P10827, whole entry: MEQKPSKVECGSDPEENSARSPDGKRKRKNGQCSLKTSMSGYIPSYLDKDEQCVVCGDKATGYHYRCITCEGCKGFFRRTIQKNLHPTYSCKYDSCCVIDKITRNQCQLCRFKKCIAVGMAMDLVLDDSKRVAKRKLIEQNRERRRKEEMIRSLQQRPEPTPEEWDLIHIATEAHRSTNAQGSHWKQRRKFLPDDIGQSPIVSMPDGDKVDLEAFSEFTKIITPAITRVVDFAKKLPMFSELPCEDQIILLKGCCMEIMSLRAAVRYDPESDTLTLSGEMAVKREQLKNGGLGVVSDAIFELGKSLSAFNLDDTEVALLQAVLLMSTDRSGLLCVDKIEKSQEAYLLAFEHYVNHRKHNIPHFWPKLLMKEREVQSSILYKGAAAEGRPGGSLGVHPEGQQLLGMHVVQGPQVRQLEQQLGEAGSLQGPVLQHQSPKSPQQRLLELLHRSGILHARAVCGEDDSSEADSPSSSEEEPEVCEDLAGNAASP
UniProt P11511, whole entry: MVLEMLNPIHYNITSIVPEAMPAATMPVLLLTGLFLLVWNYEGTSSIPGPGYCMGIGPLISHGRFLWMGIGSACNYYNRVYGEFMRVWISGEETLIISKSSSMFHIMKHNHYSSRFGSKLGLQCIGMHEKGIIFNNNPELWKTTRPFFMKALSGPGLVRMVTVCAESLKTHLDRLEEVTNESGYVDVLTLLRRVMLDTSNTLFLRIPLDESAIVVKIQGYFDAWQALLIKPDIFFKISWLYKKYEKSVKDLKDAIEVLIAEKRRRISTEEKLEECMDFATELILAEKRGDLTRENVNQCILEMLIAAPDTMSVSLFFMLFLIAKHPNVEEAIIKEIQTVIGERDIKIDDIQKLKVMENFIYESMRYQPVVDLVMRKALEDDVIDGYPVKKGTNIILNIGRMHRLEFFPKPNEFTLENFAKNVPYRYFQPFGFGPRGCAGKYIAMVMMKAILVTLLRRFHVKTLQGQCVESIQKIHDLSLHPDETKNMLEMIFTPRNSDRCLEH
UniProt Q92731, whole entry: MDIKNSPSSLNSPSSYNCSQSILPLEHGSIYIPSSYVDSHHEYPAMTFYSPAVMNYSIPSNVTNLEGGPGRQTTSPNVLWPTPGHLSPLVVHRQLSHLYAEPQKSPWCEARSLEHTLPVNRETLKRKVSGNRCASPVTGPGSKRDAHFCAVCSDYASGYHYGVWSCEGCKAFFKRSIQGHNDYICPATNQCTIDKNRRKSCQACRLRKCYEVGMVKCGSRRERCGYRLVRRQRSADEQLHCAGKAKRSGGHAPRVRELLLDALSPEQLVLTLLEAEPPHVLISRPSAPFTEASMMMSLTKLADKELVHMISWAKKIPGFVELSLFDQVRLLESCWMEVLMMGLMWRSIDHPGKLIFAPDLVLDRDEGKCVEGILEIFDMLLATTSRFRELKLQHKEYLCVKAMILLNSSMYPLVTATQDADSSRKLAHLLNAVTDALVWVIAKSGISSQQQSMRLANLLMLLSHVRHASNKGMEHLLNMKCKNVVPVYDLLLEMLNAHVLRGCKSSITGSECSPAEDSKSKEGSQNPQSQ

Key:
[1] = ATG_M_19_TRANS: Attagene TRANS-FACTORIAL HepG2 Assay for M19 Transcription Factor (Internal Marker) (AID 2282974); conditions: HepG2 Attagene TRANS-FACTORIAL M19 internal marker reporter
Procedure, shortened: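 Background-control readout: after 24 h chemical exposure of transfected HepG2 carrying GAL4-driven reporter units, RNA was reverse-transcribed, amplified, fluorescently labeled and sized by capillary electrophoresis; gain-of-signal fit against DMSO.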

[2] = biological target: Glucocorticoid receptor (Homo sapiens) (UniProt P04150); assay: ATG_GR_TRANS: Attagene TRANS-FACTORIAL HepG2 Assay for human Glucocorticoid Receptor (GR) (AID 2282978); conditions: HepG2 Attagene TRANS GR reporter, mRNA transcription;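 further: activators score as hits since higher reporter transcript over DMSO is fitted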
[3] = biological target: Oxysterols receptor LXR-alpha (Homo sapiens) (UniProt Q13133); assay: ATG_LXRa_TRANS: Attagene TRANS-FACTORIAL HepG2 Assay for human Liver X Receptor alpha (LXRa) (AID 2282980); conditions: HepG2 Attagene TRANS reporter, LXRa transactivation
Procedure, shortened: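 Transfect HepG2 with GAL4-UAS multiplex reporter constructs (TRANS format, chimeric receptor-GAL4); treat 24 h; extract RNA, reverse-transcribe, PCR-amplify, FAM-label, HpaI-digest; resolve fragments by capillary electrophoresis. Upward response vs DMSO.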

[4] = biological target: Hepatocyte nuclear factor 4-alpha (Homo sapiens) (UniProt P41235); assay: ATG_HNF4a_TRANS: Attagene TRANS-FACTORIAL HepG2 Assay for human Hepatocyte Nuclear Factor 4 alpha (HNF4a) (AID 2282982); conditions: HepG2 HNF4a transactivation reporter, mRNA readout
Procedure, shortened: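 Activity of an exogenous HNF4a–Gal4 fusion scored as induced GAL4-UAS reporter transcripts after 24 h chemical exposure of transfected human HepG2 cells. Read-out via RT-PCR with 6-FAM labelling and capillary electrophoresis; rise over DMSO baseline.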

[5] = ATG_M_06_TRANS: Attagene TRANS-FACTORIAL HepG2 Assay for M06 Transcription Factor (Internal Marker) (AID 2282983); conditions: HepG2 Attagene TRANS M06 internal marker reporter;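 further: reporter transcript level by RT-PCR then capillary electrophoresis fluorescence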
Procedure, shortened: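 Background control endpoint: reporter mRNA from transiently transfected HepG2 after 24 h dosing, detected by RT-PCR with capillary electrophoresis fluorescence. Analysed for gain versus DMSO.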

[6] = biological target: Retinoic acid receptor alpha (Homo sapiens) (UniProt P10276); assay: ATG_RARa_TRANS: Attagene TRANS-FACTORIAL HepG2 Assay for human Retinoic Acid Receptor alpha (RARa) (AID 2283005)
Procedure, shortened: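 Reporter transcripts, measured by RT-PCR with fluorescent labeling and capillary electrophoresis after 24 h dosing, reflect activity of an exogenous human RARa–GAL4 fusion in transiently transfected HepG2. Fitted for increase relative to DMSO.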

[7] = biological target: Peroxisome proliferator-activated receptor gamma (Homo sapiens) (UniProt P37231); assay: ATG_PPARg_TRANS: Attagene TRANS-FACTORIAL HepG2 Assay for human Peroxisome Proliferator-activated Receptor-gamma (PPARg) (AID 2283007)
Procedure, shortened: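 After 24 h of chemical exposure, transfected HepG2 cells carrying PPARγ-Gal4 chimera reporter constructs are lysed for RNA. Reporter transcripts are measured by RT-PCR and capillary electrophoresis with fluorescent labelling, and gain of signal is fitted versus DMSO.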

[8] = biological target: Nuclear receptor subfamily 1 group I member 2 (Homo sapiens) (UniProt O75469); assay: ATG_PXR_TRANS: Attagene TRANS-FACTORIAL HepG2 Assay for human Pregnane X Receptor (PXR) (AID 2283008)
Procedure, shortened: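 Multiplexed TRANS reporter panel in HepG2; this component tracks PXR-Gal4-driven reporter mRNA after 24 h dosing, measured by RT-PCR with capillary electrophoresis fluorescence, fitted against DMSO.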

[9] = biological target: human Retinoic Acid Receptor gamma (RARg), RARG (gene 5916) (UniProt P13631); assay: ATG_RARg_TRANS: Attagene TRANS-FACTORIAL HepG2 Assay for human Retinoic Acid Receptor gamma (RARg) (AID 2283009)
Procedure, shortened: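 Transactivation of exogenous RARg-Gal4 fusion measured as reporter transcript induction after 24 h in transfected HepG2 cells. RNA reverse-transcribed, amplified, fluorescently labeled and resolved by capillary electrophoresis; increase relative to DMSO.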

[10] = biological target: human RAR-related Orphan Receptor beta (RORb), RORB (gene 6096) (UniProt Q92753); assay: ATG_RORb_TRANS: Attagene TRANS-FACTORIAL HepG2 Assay for human RAR-related Orphan Receptor beta (RORb) (AID 2283010)
Procedure, shortened: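 Read-out is reporter mRNA induction, quantified by RT-PCR with fluorescent capillary electrophoresis, 24 h post-dose in transiently transfected HepG2 expressing exogenous NR-Gal4 chimera. Activity fitted upward versus DMSO.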

[11] = biological target: Retinoic acid receptor RXR-alpha (Homo sapiens) (UniProt P19793); assay: ATG_RXRa_TRANS: Attagene TRANS-FACTORIAL HepG2 Assay for human Retinoid X Receptor alpha (RXRa) (AID 2283012)
Procedure, shortened: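 TRANS format reporting activity of exogenous RXRa-Gal4 chimera in transiently transfected HepG2, 24 h exposure. Reporter transcripts quantified by RT-PCR with capillary electrophoresis, with gain of signal scored relative to DMSO.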

[12] = biological target: human Thyroid Receptor alpha (THRa1), THRA (gene 7067) (UniProt P10827); assay: ATG_THRa1_TRANS: Attagene TRANS-FACTORIAL HepG2 Assay for human Thyroid Receptor alpha (THRa1) (AID 2283014)
Procedure, shortened: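 Reporter transcript induction, read by capillary electrophoresis of 6-FAM-labelled RT-PCR products, reflects activity of a transfected THRa1-Gal4 fusion in HepG2 liver cells. Cells were dosed for 24 h; activity was fitted in the positive direction against DMSO.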

[13] = biological target: human CYP19A1, CYP19A1 (gene 1588) (UniProt P11511); assay: NVS_ADME_hCYP19A1: NovaScreen (NVS) CYP450-related Enzyme Activity (ADME) Assay for human CYP19A1 (AID 2283098);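 further: potency for inhibitors seen as loss of fluorescent enzyme signal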
Procedure, shortened: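 Primary testing was in duplicate at a single 10 uM concentration, with actives followed up in concentration-response series. Fluorescence read-out of recombinant enzyme activity at 0.5 h, cell-free. Acetonitrile was the negative-control baseline.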

[14] = NVS_GPCR_bNPY_NonSelective: NovaScreen (NVS) G Protein-Coupled Receptor Assay for bovine Neuropeptide Y (NPY) Receptor, Non-selective Binding (AID 2283245)
Procedure, shortened: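 Displacement of radioligand from bovine hippocampal membrane receptors, read by filtration and scintillation counting after 1 hour. Concentration-response to a top of 50 uM followed a 25 uM duplicate primary screen. Loss of signal versus DMSO.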

[15] = biological target: Estrogen receptor beta (Homo sapiens) (UniProt Q92731); assay: OT_ER_ERbERb_0480: Odyssey Thera (OT) 8-hour HEK293T Protein-Complementation Assay for Estrogen Receptor-beta/-beta Homodimer (AID 2283357);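 further: active means signal gain over DMSO baseline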
Procedure, shortened: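 ER-beta LBD homodimer PCA stably expressed in HEK293T; 8 h compound exposure, then formaldehyde fixation and Draq5 staining. Gain in nuclear/cytoplasmic fluorescence intensity versus DMSO vehicle, read on laser scanning cytometer.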

[16] = biological target: Retinoic acid receptor RXR-alpha (Homo sapiens) (UniProt P19793); assay: OT_NURR1_NURR1RXRa_0480: Odyssey Thera (OT) 8-hour HEK293T Protein Complementation Assay for Nurr1/retinoid X receptor (RXR) (AID 2283385)
Procedure, shortened: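 Interaction of Nurr1 with RXRα read as reconstituted reporter fluorescence in a HEK293T fragment-complementation system, 8 h post-treatment; increase over DMSO baseline analysed.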

[17] = Tanguay_ZF_120hpf_PFIN_legacy: (Legacy) Oregon State University Tanguay Lab 120 Hour Post-fertilization zebrafish Assay for Pectoral Fin Malformation (AID 2283648);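 further: each larva judged yes or no for fin defect by brightfield with dead larvae skipped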
Procedure, shortened: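 Pectoral fin malformation was recorded as a binary endpoint at 120 hpf in wild-type Tropical 5D larvae, which had been dechorionated and exposed statically from 6 hpf at 28C in 0.64% DMSO. Dead embryos were excluded.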

[18] = CCTE_Harrill_HTTr_CellCount_MCF7: CCTE's Cell Proliferation Assessment for the High-Throughput Transcriptomics (HTTr) Platform, Harrill Lab (AID 2284012);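 further: cells exposed to compound for six hours; intended direction is loss of nuclei count meaning fewer cells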
Procedure, shortened: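 Cell count from high-content imaging of Hoechst-labeled nuclei serves as viability/growth readout. Chemicals were applied to MCF-7 cells in eight concentrations for six hours, with fitting in both directions relative to DMSO.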

[19] = CCTE_Shafer_MEA_acute_AB: CCTE's Alamar Blue Assay for Cytotoxicity in the Neural Acute Assay, Shafer Lab (AID 2284069);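 further: active compounds lower the viability signal compared with DMSO wells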
Procedure, shortened: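 Cytotoxicity endpoint for acute MEA exposures of primary rat cortical neurons on day 13 or 15. Resazurin reduction is read fluorescently at 544/590 nm, with DMSO as the negative-control baseline.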

Measured: AC50

CC(C)OP(C)(=O)OC(C)C
inconclusive: [1] | [2] | [3] 18.9 µM | [4] 23.9 µM | [5] | [6] | [7] 100 µM | [8] 100 µM | [9] | [10] | [11] | [12] | [13] 0.000914 µM | [14] 2.06 µM | [15] | [16] 0.375 µM | [17] 126 µM | [18] | [19]
